Measured values: patent US20140249293A1, “Absent and Rare Peptides and Therapeutic Uses Thereof” (Boise State University, priority 2012, published 2014)
“Also recorded” adds a separate entry of the source. Not every detail of the peptide structures is certain; ends, links or a residue may be inferred. Ends that are not written are not given here.

Tests used:
[1] = test system: several cancer cells including, breast and prostate cancer cells; assay: Killing of cancer cells, IC50 as 50% live cells compared to untreated control; format: cell-based
LnCaP cells [2] = conditions: for MTT absorbance value compared with control treatment cells: LnCaP, treated 48 hours, MTT 4 hours; for metabolically active cells (formazan crystals) under the microscope: LnCap, 30 μM peptide, 48 hrs, 200×
Protocol: LnCaP cells were treated with peptides 9R, 9S1, 120 (SEQ ID NO: 120) and a vehicle control. LnCaP cells were treated with the peptides for 48 hours, and incubated with MTT for 4 hours. For background level of absorbance, media alone was measured on the plate. […] Several concentrations of peptides were used to determine the IC50 of these peptides.
These cells were treated with an identical concentration (30 μM) of peptoprime peptide 120.

LnCaP cells [3] = assay: Mitochondrial health (MitoHealth dye), confocal microscopy, LnCaP; format: cell-based; conditions: 100 μM, 1 hour
[4] = test system: Breast cancer cells (MDA-MB-231); assay: MTT assay of MDA-MB-231 cells; format: cell-based; conditions: MDA-MB-231, treated 1 hour, MTT 4 hours
[5] = test system: prostate cancer cells (LnCap); assay: MitoSOX Red mitochondrial superoxide (ROS) detection; format: cell-based; conditions: 50 and 100 μM, compared to peptide 9R and 120 treated cells, p<0.01
HUT-102 cells = assay: Mitochondrial health (MitoHealth dye), confocal microscopy, HUT-102; format: cell-based; conditions: HUT-102, 100 μM
HUT-102 leukemic cells = assay: Time elapsed imaging of HUT-102 cells after incubation with peptide; format: cell-based; conditions: 100 μm peptide, 60 minutes after incubation
[6] = test system: paclitaxel-resistant LnCap cells; assay: MTT assay of paclitaxel-resistant LnCap cells (reversal of paclitaxel resistance); format: cell-based; conditions: 120 hours
Protocol: The 9R peptide (SEQ ID NO: 200; labeled “9” in FIG. 16) was tested for its ability to reverse paclitaxel (TAXOL™) resistance in paclitaxel-resistant LnCap cells.
Paclitaxel-resistant LnCaP cells were treated with the peptides for 120 hours, and incubated with MTT for 4 hours. The paclitaxel-resistant LnCap cells were resistant to paclitaxel even at 600 μM concentration (data not shown). Referring to FIG. 16, the paclitaxel-resistant LnCap cells were resistant to 9R at the 100 μM level (labeled **). However, the combination of paclitaxel (at little as 30 nM) and 9R (at little as 5 μM) killed the paclitaxel-resistant LnCap cells (labeled ***).

LnCaP cells [7] = format: cell-based; conditions: 24 hrs, peptide above 30 μM, p<0.01
Text: The HCS MITOCHONDRIAL HEALTH KIT™ (available from Invitrogen) includes a dye that is taken up by healthy, actively respiring mitochondria. The uptake of this dye can be visualized with fluorescent confocal microscopy. FIGS. 9A-9C show control LnCaP cells treated only with the vehicle control (i.e., no peptide). The Hoechst dye stained nuclei of cells, whether they were alive or dead (Excitation/Emission maxima—Hoechst 33342: 350/461 nm). FIG. 9A is a panel showing all nuclei stained with Hoechst dye. FIG. 9B is a panel showing healthy mitochondria stained with MitoHealth dye. FIG. 9C is a panel showing the merged images of 9A and 9B. The mitochondrial health dye incorporated into the cells depends on mitochondrial membrane potential (excitation/emission maxima—MitoHealth stain: 550/580 nm). The HCS MITOCHONDRIAL HEALTH KIT™ (Invitrogen) was developed for simultaneous quantitative measurements of two cell health parameters in the same cell: mitotoxicity and cytotoxicity. The MitoHealth stain accumulated in mitochondria in live cells proportional to the mitochondrial membrane potential.
A range of peptide concentrations was applied to the LnCap cells. […] The cells were treated for 24 hrs.
A range of peptide concentrations was used to treat LnCap cells. […] The cells were incubated with peptide for 24 hrs.

Substance	time at which killing effects were observed ([1]; as little as)	IC50 ([1]; cancer cells, read-out: IC50 (concentration at which there are 50% live cells compared to untreated control))	killing of cancer cells ([1]; several cancer cells including breast and prostate cancer cells)	MTT absorbance value compared with control treatment cells (LnCaP cells [2])	metabolically active cells (formazan crystals) under the microscope (LnCaP cells [2])	MitoHealth fluorescence (confocal) (LnCaP cells [3])	MTT absorbance values compared to the control treatments [4]	ROS production in mitochondria [5]	mitochondrial fluorescence (confocal) versus vehicle-control (HUT-102 cells)	cell morphology in time elapsed images (HUT-102 leukemic cells)	sensitivity of paclitaxel-resistant LnCap cells (MTT) ([6]; combination of paclitaxel (as little as 30 nM) and 9R (as little as 5 μM))	sensitivity of paclitaxel-resistant LnCap cells (MTT) ([6]; peptide alone at 100 μM)	difference from vehicle-control treated cells in mitochondrial health assay (LnCaP cells [7])
WCMNW [Peptide 9S1, WCMNW]	2 h	20 to 25 µM	highly effective at killing	marked decrease	not metabolizing	decrease in overall fluorescence	marked decrease	rapid increases; also recorded: significant increase	clear decrease in mitochondrial fluorescence				
RRRRRNWMWC [Peptide 9R, RRRRRNWMWC]				marked decrease	fewer cells were metabolically active		marked decrease			explosion of the vesicle/bleb structure	killed	resistant	significant difference
WFMHW [Peptide 120, WFMHW]				no effect	full of metabolizing cells		no effect						
